Results on three molecules are retold here after paper PMC2744266, “The Ataxia (ax ^J) Mutation Causes Abnormal GABAA Receptor Turnover in Mice” (PLoS Genetics, 2009).

For experiment [1], the target named is GABAAR α1 subunit, full length, expressed in HEK293 cells (UniProt P62812). The experiment in a line: co-IP; HEK293 cells harvested in 1% Triton X-100 48 h after transfection; antibodies on protein G beads; extracts incubated over night; 50 mM TrisHCl, 150 mM NaCl, 5 mM MgCl2, pH 7.1.
Experiment [2] has as its target T1, GABAAR α1 loop deletion mutant aa 334–346, two-hybrid bait (UniProt P62812).
T1 sequence: NYFTKRGYAWDGK
Briefly: two-hybrid; Matchmaker LexA yeast two-hybrid system; bait in pGilda, prey in pJG4-5; activation of LEU2 and lacZ reporter genes. A general note: In a reporter assay the amount or activity of a reporter protein is the signal.

Experiment [3] addresses T2, large intracellular loop of GABAAR α1 (aa 334–420), two-hybrid bait (UniProt P62812).
T2 sequence: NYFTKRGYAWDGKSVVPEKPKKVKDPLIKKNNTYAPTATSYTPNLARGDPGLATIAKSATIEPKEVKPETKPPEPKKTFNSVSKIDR
The description is as above.

For experiment [4], the target named is T3, GST-tagged GABAAR α1 loop (aa 334–420) (UniProt P62812).
T3 sequence: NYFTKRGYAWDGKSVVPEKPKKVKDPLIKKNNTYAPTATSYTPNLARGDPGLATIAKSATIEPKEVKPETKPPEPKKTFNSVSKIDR
The experiment in a line: pull-down; GST fusion from E. coli BL21 lysate coupled to glutathione-sepharose beads for 3 h; lysate applied for 10-12 h; Western blot; only the target purified. Background: In western blotting, separated proteins are transferred to a membrane and probed.

Results are given in words; binding and its absence hold for the method and conditions named. For some of these results: Binding seen in cells or lysates may run through a third protein. Some binding calls cover weakened binding; strength is not graded here. For some of these results: Tags and fused reporters may be left off the sequences shown.

For “GFP-Usp14(H434A-D450A) (from UniProt Q9JMA1 1-493) (enzyme)”, in experiment [1], the binding entry was “binds”. Take “Usp14LF (full-length long form of ubiquitin-specific protease 14), two-hybrid prey (from UniProt Q9JMA1 1-493) (enzyme)”: the binding entry in experiment [2] and in experiment [3] was “binds” each time.

B1: Endogenous Usp14 protein derived from mouse brain lysates (enzyme, mouse (endogenous in brain), UniProt Q9JMA1 1-493, looked up)
chain: MPLYSVTVKWGKEKFEGVELNTDEPPMVFKAQLFALTGVQPARQKVMVKGGTLKDDDWGNIKMKNGMTVLMMGSADALPEEPSAKTVFVEDMTEEQLATAMELPCGLTNLGNTCYMNATVQCIRSVPELKDALKRYAGALRASGEMASAQYITAALRDLFDSMDKTSSSIPPIILLQFLHMAFPQFAEKGEQGQYLQQDANECWIQMMRVLQQKLEAIEDDSGRETDSSSAPAVTPSKKKSLIDQYFGVEFETTMKCTESEEEEVTKGKENQLQLSCFINQEVKYLFTGLKLRLQEEITKQSPTLQRNALYIKSSKISRLPAYLTIQMVRFFYKEKESVNAKVLKDVKFPLMLDVYELCTPELQEKMVSFRSKFKDLEDKKVNQQPNANDKNSPPKEIKYEPFSFADDIGSNNCGYYDLQAVLTHQGRSSSSGHYVSWVRRKQDEWIKFDDDKVSIVTPEDILRLSGGGDWHIAYVLLYGPRRVEIMEEESEQ
As to B1, in experiment [4], the binding entry is “binds”.
